Source: article PMC5946387
These are yes or no findings as the source states them, for the method shown. Binding seen in cells or lysates may run through a third protein. Some entries that bind do so weakly or less than the wild type. Tags and fused reporters may be left off the sequences shown.

What was measured:
[1] = molecular target: T1, HIRA[ΔB]::Flag (HIRA with a deletion in the B domain, 3xFLAG-tagged) (Drosophila melanogaster) (UniProt O17468); assay: co-IP; ovarian extracts of transgenic females; 100 µg extract with anti-V5 agarose beads or anti-FLAG M2 affinity gel overnight at 4 °C; washing buffer 20 mM Hepes pH 7.9, 100 mM KCl, 200 mM NaCl, 0.05% Igepal; Western blot
T1 sequence: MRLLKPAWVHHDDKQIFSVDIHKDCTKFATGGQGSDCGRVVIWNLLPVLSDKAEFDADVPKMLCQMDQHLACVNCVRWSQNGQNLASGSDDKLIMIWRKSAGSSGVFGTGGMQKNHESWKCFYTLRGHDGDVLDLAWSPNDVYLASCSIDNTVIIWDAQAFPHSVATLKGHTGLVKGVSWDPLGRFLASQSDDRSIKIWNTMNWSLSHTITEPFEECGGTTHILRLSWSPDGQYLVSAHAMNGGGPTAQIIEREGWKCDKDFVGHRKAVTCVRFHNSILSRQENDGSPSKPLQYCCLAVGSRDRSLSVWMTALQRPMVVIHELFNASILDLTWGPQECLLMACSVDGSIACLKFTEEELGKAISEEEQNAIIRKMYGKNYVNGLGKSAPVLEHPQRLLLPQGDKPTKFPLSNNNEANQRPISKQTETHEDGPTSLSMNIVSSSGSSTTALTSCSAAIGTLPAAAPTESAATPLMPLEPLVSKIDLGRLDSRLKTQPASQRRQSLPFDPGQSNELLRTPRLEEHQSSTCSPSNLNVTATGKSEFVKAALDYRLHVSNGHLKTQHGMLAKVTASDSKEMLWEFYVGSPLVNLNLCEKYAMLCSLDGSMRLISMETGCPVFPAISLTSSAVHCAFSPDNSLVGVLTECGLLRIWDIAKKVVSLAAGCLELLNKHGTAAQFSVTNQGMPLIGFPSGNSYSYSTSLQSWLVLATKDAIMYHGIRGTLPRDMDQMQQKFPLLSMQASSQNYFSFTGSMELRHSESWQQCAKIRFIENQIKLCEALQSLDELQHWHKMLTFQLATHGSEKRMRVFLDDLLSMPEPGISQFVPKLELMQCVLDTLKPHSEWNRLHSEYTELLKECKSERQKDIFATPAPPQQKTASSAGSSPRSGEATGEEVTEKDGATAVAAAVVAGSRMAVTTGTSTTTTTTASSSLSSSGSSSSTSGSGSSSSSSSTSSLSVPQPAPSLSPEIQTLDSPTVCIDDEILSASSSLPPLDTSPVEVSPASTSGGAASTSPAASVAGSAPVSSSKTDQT

[2] = molecular target: T2, HIRA::Flag (Histone Regulator-A, 3xFLAG-tagged) (Drosophila melanogaster) (UniProt O17468); assay: as above
T2 sequence: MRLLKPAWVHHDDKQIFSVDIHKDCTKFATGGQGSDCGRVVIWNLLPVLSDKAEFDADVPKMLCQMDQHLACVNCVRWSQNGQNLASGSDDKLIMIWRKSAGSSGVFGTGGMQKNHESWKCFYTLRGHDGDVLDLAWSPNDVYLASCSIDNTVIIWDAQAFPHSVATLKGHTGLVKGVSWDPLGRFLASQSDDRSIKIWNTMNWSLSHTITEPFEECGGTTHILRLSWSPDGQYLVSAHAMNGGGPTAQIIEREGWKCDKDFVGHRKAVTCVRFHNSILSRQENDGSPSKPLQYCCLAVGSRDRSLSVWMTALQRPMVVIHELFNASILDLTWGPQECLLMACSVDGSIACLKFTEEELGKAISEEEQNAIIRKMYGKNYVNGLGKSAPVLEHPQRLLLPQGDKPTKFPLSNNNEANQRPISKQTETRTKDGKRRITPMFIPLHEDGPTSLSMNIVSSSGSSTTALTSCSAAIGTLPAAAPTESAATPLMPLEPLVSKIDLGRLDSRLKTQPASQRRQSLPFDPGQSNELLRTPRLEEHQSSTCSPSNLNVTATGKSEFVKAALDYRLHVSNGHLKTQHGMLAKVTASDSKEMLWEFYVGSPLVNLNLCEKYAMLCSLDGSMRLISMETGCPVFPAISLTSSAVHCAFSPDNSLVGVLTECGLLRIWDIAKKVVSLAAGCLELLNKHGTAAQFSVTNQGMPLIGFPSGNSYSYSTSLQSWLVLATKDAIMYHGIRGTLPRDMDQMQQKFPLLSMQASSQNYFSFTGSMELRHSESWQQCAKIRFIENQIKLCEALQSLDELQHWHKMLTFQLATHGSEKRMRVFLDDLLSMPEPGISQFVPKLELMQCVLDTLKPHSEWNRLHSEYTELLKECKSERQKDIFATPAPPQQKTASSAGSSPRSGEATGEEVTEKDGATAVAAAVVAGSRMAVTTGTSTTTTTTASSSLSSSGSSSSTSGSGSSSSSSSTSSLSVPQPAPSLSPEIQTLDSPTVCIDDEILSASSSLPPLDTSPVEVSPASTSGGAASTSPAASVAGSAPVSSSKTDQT

B1: ASF1::V5 (Anti-Silencing Factor 1, V5-tagged) (protein, UniProt Q9V464 1-218)
chain: MAKVHITNVVVLDNPSSFFNPFQFELTFECIEELKEDLEWKMIYVGSAESEEHDQVLDTIYVGPVPEGRHIFVFQADPPDVSKIPEPDAVGVTIVLLTCSYRGQEFVRVGYYVNNDYADPEMRENPPTKPLFEKLTRNILASKPRVTRFKINWDYGHINGNGNGVENGHQDEMATDGPSTSEAASAVIHPEDDNSLAMPMENGIKALNENSNSLAMEC
- binding [1]: binds
- binding [2]: binds
